## Percent effect of library compounds

By UniProt entry, the sequences of proteins in these tests, tags left out. Residues count along the entry.
UniProt Q4DA54, 1-478: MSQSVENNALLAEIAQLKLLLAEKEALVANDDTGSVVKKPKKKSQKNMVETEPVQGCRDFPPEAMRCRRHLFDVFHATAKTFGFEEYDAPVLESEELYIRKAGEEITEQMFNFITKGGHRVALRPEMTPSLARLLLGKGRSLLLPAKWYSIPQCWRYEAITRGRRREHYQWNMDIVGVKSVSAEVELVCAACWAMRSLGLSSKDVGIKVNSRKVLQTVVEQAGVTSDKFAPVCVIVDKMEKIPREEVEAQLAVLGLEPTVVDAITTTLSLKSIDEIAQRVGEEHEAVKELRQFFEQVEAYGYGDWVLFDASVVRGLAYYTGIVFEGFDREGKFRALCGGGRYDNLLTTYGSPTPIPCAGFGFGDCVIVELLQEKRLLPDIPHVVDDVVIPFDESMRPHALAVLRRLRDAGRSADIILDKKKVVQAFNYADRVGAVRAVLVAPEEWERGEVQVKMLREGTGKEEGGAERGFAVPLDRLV
UniProt P9WPC5, whole entry: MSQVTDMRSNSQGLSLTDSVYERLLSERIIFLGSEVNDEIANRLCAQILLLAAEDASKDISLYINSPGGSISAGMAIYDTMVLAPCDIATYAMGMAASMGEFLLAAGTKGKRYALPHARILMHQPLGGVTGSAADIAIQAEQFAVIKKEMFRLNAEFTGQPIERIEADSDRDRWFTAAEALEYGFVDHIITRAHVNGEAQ
UniProt P9WPC3, whole entry partner: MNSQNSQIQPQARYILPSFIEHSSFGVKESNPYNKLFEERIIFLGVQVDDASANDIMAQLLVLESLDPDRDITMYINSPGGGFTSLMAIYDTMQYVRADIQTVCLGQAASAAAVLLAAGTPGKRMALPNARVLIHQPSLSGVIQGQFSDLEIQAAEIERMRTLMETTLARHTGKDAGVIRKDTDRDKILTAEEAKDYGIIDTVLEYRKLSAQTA

The values are deposited in ChEMBL (CHEMBL3988442, “University of Dundee, Small-Polar-MMV Screening Library” (2021)).

TcHisRS: 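Enzyme assay of histidyl-tRNA synthetase; the read-out is not stated. Target: Histidine-tRNA ligase, Trypanosoma cruzi CL Brener (UniProt Q4DA54). Tested at 30 µM. Higher reads as stronger inhibition (inferred: compounds with an IC50 in retests scored well above the rest). Of about 69,000 compounds tested this way, about 31 (0.045%) reached 50% or more in at least one test.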
ClpP1P2: 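Protease assay of ClpP1P2, read by the AMC dye that it sets free. Target: ClpP1P2, Mycobacterium tuberculosis (UniProt P9WPC5 and UniProt P9WPC3). Tested at 50 µM. Higher reads as stronger inhibition, judged from the few compounds that gave an IC50. Most other retested compounds had strongly negative values. Size under these conditions: about 69,000 compounds, about 10 of them at 50% or above in at least one test.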

Each number is a percent effect as filed. The controls that fix the scale are not given in the record; negative values are as filed. The compounds are a random part of those screened.

compound | TcHisRS | ClpP1P2
CC1c2ncc(Cn3cccn3)n2CCN1S(=O)(=O)C1CC1 (stereo not drawn) | 8.543 | -1.69
CCOCC1COCCC12CCN(C(=O)CCOC)CC2 (stereo not drawn) | 3.659 | -8.594
CC(C)(C)n1cc(CNC2CCN(C(=O)c3ccoc3)CC2)cn1 | 10.83 | -1.138
COCCc1noc(C2CCCN(c3nc(N)nc4c3CCCC4)C2)n1 (stereo not drawn) | 7.212 | 1.459
CC(C)(C)c1nc(CNC(=O)N2CCc3ccccc3C2CO)no1 (stereo not drawn) | 5 | -11.48
COCCn1ccnc1C1CCCN(C(=O)c2cc(F)cc(F)c2)C1 (stereo not drawn) | 14.14 | 5.065
Cc1ccc2c(c1)C(N(C)C)CC21CCN(CCO)CC1 (stereo not drawn) | 4.598 | 8.837
Cc1csc(CCNC(=O)C2CCCN(C3CCOCC3)C2)n1 (stereo not drawn) | 1.948 | 1.224
CCCn1c(=O)n(CCC(=O)N(C)Cc2ccc(C)o2)c2ccccc21 | 0 | -8.164
COc1cc(OC)cc(C2CCN(CC(=O)NCC(F)(F)F)C2)c1 (stereo not drawn) | 8.621 | 5.242
CN(C)CC(O)Cn1cc(NCc2ccc(Br)cc2)cn1 (stereo not drawn) | 7.035 | -0.3828
COc1cc(CNCc2ccnc(N3CCCCC3)c2)cc(OC)c1 | 10.85 | -12.74
CN(C)S(=O)(=O)c1csc(C(=O)N2CCSCC2)c1 | -0.5618 | -8.436
CC(C)c1ncc2c(n1)CN(Cc1nc(-c3ccoc3)no1)CC2 | 8.046 | 1.675
CC(C)CN1Cc2c(C(=O)N(C)C)ncn2-c2ccccc2S1(=O)=O | 4.972 | -1.053
COc1cc(CNC(=O)NCc2c(C)cc(C)[nH]c2=O)ccc1C | -3.422 | 1.694
Cc1noc(C)c1CNC(=O)N1CCC(NS(C)(=O)=O)CC1 | 4.082 | -9.799
Cc1cccc(N2CCCC2c2nc(C)ncc2CN(C)C)n1 (stereo not drawn) | 12.41 | 4.465
NC(=O)CCCNC(=O)Cc1csc(Cc2ccccn2)n1 | 5.521 | 4.223
NC(=O)c1cnc(NC(=O)CCc2ccco2)c(Cl)c1 | 0.9804 | 5.854
CCOc1ncnc2c1CCN(C(=O)c1cnccn1)CC2 | 3.483 | 1.133
CC1=N[C@@]2(CC[C@@H]3CN(Cc4ccccc4F)C[C@@H]32)C(=O)N1C | 6.25 | -3.512
CC(NC(=O)NCCC1=CCCCC1)c1nncn1C (stereo not drawn) | -3.509 | 17.73
CC(C)(CO)Nc1c(NCc2ccncc2)c(=O)c1=O | -3.659 | -2.312
O=c1[nH]c(-c2ccncc2)ncc1-c1ccnc(NC2CCCCC2)n1 | -2.26 | 7.614
Cc1cnn(CC2CCCN2C(=O)c2csc(-c3nnc[nH]3)n2)c1 (stereo not drawn) | 6.706 | -27.67
CCOc1ccc(Cl)c(C(=O)N2CCCC(c3cc(C)[nH]n3)C2)n1 (stereo not drawn) | 8.287 | -0.147
CN1C(=O)CO[C@H](c2ccc(NC(=O)Nc3ccccc3)cc2)[C@H]1CO | 4.348 | 6.229
Cc1cccc(CN2CC[C@H]3CO[C@H](CNC(=O)N(C)C)[C@H]3C2)c1 | -1.493 | -5.947
CCNC(=O)[C@@H]1C[C@H](N)CN1Cc1ccc(-c2ccccc2C#N)o1 | 3.933 | -7.077
COc1cc(NC(=O)C2CC(=O)N(c3cccc(F)c3)C2)ncn1 (stereo not drawn) | 4.124 | 0.6838

The last 2 entries again:

* CCNC(=O)[C@@H]1C[C@H](N)CN1Cc1ccc(-c2ccccc2C#N)o1 | TcHisRS: 3.933%; ClpP1P2: -7.077%
* COc1cc(NC(=O)C2CC(=O)N(c3cccc(F)c3)C2)ncn1 (stereo not drawn) | TcHisRS: 4.124%; ClpP1P2: 0.6838%